Experimental data published in PubChem BioAssay AID1347423 (Functional Genomics Laboratory (NCATS/FGL), 2020).
Hit rate of the full screen: of about 52,000 sequences, about 210 (0.4%) were called active.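 How the source made its calls: active means gene whose silencing raises cell survival under the drug, median off-target-corrected z-score across its silencing RNAs 2 or more; inactive means the rest.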 This is one part of the list.

Test: Resistance to Poly (ADP-Ribose) Polymerase inhibitor: Gene Identification via Genome-wide siRNA Screen
Conditions: mouse BRCA2 R2336H ES cells, olaparib, CellTiter-Glo viability; active compounds read high
In short: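 Mouse BRCA2 R2336H ES cells were reverse-transfected with siRNA (20 nM final), treated at 48 h with 500 nM olaparib, and read by CellTiter-Glo after 72 h. Scores: MAD-based z per siRNA, median per gene, seed off-target correction.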

| Sequence | z-score |
| --- | --- |
| GGUCUUCUAUGGGAUCAUGTT against Entpd6 | inactive: 1.17 |
| GGACUACCUGUGAAGCAAUTT against 2310020P08Rik | inactive: -0.369 |
| CAUCUCUCCACCAAUUCACTT against Lphn3 | inactive: 0.0302 |
| GCUAACCCUCGUUUAGAAGTT against 2310016F22Rik | inactive: 0.0482 |
| GGACUAGAAUAUCACAACGTT against 4932408B21Rik | inactive: 0.811 |
| CCUUGUCAUUGCACUCCAATT against Tm6sf2 | inactive: -0.379 |
| GGCAACCAUUAAAUGUUUATT against Trim59 | inactive: -0.819 |
| GGAGAAAGAAACUCUCAGATT against 2610301B20Rik | inactive: -0.939 |
| GGAAGAGUCUAAUUAAAGGTT against Rab27b | inactive: 0.02 |
| GCUUGAUCAACAAGUGGAGTT against Nup62 | inactive: -1.64 |
| GGAUGGUGAUAAAAACAACTT against Tnnc2 | inactive: 0.227 |
| GGAGAACUUUUUGAUAGAATT against Chek1 | inactive: -0.512 |
| GGGUCUGCGUGACAAUUACTT against 4930542C12Rik | inactive: 0.697 |
| GGAGAAAAAGUUACGUCGATT against Stk38l | inactive: -0.502 |
| GGAUGUGACCCACUUUAUATT against Zhx3 | inactive: 1.91 |
| GGUUACAAAUGAUUGUUCATT against Phxr2 | inactive: -0.694 |
| GGCCUUCAACAUUGACCGATT against Kcnc4 | inactive: 0.13 |
| GGUGACUUUCUGAAACUCCTT against Hoxa5 | inactive: 1.39 |
| GGCUAAGCAACUCUUUCGATT against Sec22l1 | inactive: 0.655 |
| GGCCUCAUGAAGAACCUUCTT against Pparg | inactive: 0.0186 |
| GCUGGUAUACAGAAUAAACTT against Mfn1 | inactive: -0.145 |
| GGUUUAAUAGACGACAAUGTT against Ube2g1 | inactive: -0.676 |
| GGAAAUCUUUGAGUUUGAATT against Clca3 | inactive: 2 |
| GGCCCACCUAUUUCAUCUCTT against Actl7b | inactive: 0.808 |
| GGUUGUGACUUCUCAUUUUTT against Ccnb1 | inactive: -0.703 |
| GGAAGAUAAUGGGAAUUUCTT against Acp2 | inactive: 0.839 |

A second format for some results above:
GGUGACUUUCUGAAACUCCTT against Hoxa5
  z-score: inactive: 1.39
GGCUAAGCAACUCUUUCGATT against Sec22l1
  z-score: inactive: 0.655
GGCCUCAUGAAGAACCUUCTT against Pparg
  z-score: inactive: 0.0186
GCUGGUAUACAGAAUAAACTT against Mfn1
  z-score: inactive: -0.145

Next part.

| Sequence | z-score |
| --- | --- |
| GGGCUACAUUCCUUCCAAUTT against Frk | inactive: -2.18 |
| CCUCCCAAGUAAAUUAUUATT against AW210596 | inactive: -0.551 |
| GCUGUUUGAACUCGCCCGATT against C330016O16Rik | inactive: 0.214 |
| GGAAAGUUUACACUAAAAGTT against Copeb | inactive: 0.575 |
| GGAGAUUGCUAAUAGCUGUTT against Cldn15 | inactive: 1.53 |
| CCUAUAUAAACACUCGAAATT against Zbtb5 | inactive: -0.185 |
| GGGAGUAGAGAUCAAAGGCTT against H2-Bf | inactive: -0.762 |
| GGCAGACAUCACAAUGGCUTT against Hemgn | inactive: 2.61 |
| CGAUGUUGUAAAUAAUGCATT against Cai | inactive: -0.428 |
| GCCCUGCACCAGAAAAACATT against 2310004N11Rik | inactive: -0.441 |
| GUUUCUGGAGACGGUGGAGTT against Rpl10a | inactive: -2.29 |
| GGUAAAGGAUGCUUUUAAGTT against Olfr801 | inactive: 1.45 |
| GGAGUCCUAAAGAGUUCUATT against Slc11a1 | inactive: -0.278 |
| CCUACUAGUGCAUUUGUAATT against Gabarapl2 | inactive: 1.66 |
| GGUAACGAUGCUGGAAUUCTT against Sdcbp | inactive: -1.68 |
| CCCAGGUUGACAAGAACUCTT against Socs7 | inactive: -0.289 |
| GGUAAAGGUAAACUUAUACTT against V1rd14 | inactive: 1.14 |
| GGACAGAAUGGAAAUUCUUTT against Efna2 | inactive: -0.312 |
| GGCAGUGGAGUGUAUGGAUTT against Popdc2 | inactive: -1.38 |
| GGAAGAAGAUGGAGAUAAATT against Neurod4 | inactive: -0.296 |
| GGAAUUUGCUGAAUUUAGUTT against Jmjd2c | inactive: 0.638 |
| GCGCAGAACCCAGAUGAAGTT against 1110005F07Rik | inactive: 0.994 |
| CGUAAGUGGACGACGGUUCTT against Kcnd3 | inactive: -1.19 |
| GGAAGUUUCCCAUCAGUGATT against Cryab | inactive: -0.396 |
| GGGUGACCUUUUGUUUUUATT against Cfl2 | inactive: 1.39 |
| GGGCCUUACGUCAUUCUCUTT against Dnajb7 | inactive: 0.5 |

| Sequence | z-score |
| --- | --- |
| GGAGUUACCUGGAUAUUAUTT against Car8 | inactive: 0.398 |
| GGACCUAUUACACACUUGUTT against 2310020P08Rik | inactive: 1 |
| GGGCAGGAACAAAAGAAGCTT against Dsc1 | inactive: 0.932 |
| GGACAAGCAAGAAGGAAUUTT against Polr2j | inactive: -2.77 |
| GGUAGAAGUGAAAAAGAUATT against Bhmt | inactive: -0.359 |
| GGCACAGAUUGUGGUGAAGTT against D11Ertd707e | inactive: -2.74 |
| GGAUGAACAACAAUCAAACTT against Btrc | inactive: -0.247 |
| GCUAACGAAGGUAGUGUACTT against 0610037H22Rik | inactive: -0.92 |
| GGUAAGUCCUAACAAACAATT against Nxph2 | inactive: 3.68 |
| AGGUAGAAAAACAAUACCGTT against 1200009F10Rik | inactive: 0.97 |
| GGGUCAGCCAAAGGAAAAUTT against D230007K08Rik | inactive: -0.399 |
| GGUUUACAGCACCAAGAUCTT against Itih3 | inactive: 0.543 |
| GGAGUACUAAGUCCAUUCCTT against Tuba2 | inactive: 1.46 |
| UUAACUACAAUCCAUCACUTT against Dscr1l1 | inactive: -0.33 |
| GGACCUGUACAAAAAGGGATT against Mag | inactive: 1.97 |
| GGUGACUUGCUUUAGAAAATT against 2600017J23Rik | inactive: 0.703 |
| GGAGGAAUUUCUUAAGCUUTT against Ivns1abp | inactive: -0.246 |
| CCUGAUCCUCAGUUUGGUGTT against Prl | inactive: -0.52 |
| GGAACUGCUAAGAGAGAAATT against 1810060J02Rik | inactive: -0.725 |
| UGCCUGUAAACCAACAAGGTT against Prb1 | inactive: -0.944 |
| GCUUCUAUUUCAUCUUUGUTT against Krtap4-7 | inactive: -0.152 |
| GGACCAUUUUCAAUACUCUTT against Rps6kl1 | inactive: -0.172 |
| GCAUGUAUGGGCUGUUCAUTT against Olfr642 | inactive: -2.63 |
| GGGCAUCCUUCAACUUCAGTT against 4932417D18Rik | inactive: 0.632 |
| GGAGAUUGGCUUCCAGAAATT against BC031853 | inactive: -1.11 |
| GCCAACCAUCAGUUUAUACTT against Oact1 | inactive: -0.379 |

| Sequence | z-score |
| --- | --- |
| GCUGACUGCCAAGGAUUUUTT against Ogn | inactive: -0.0744 |
| GCUGAAUAGCCUCUAUCUATT against Rasgrp4 | inactive: 0.14 |
| GGAUCCAAUACCAGCUAGUTT against Sh3bgrl3 | inactive: -0.00984 |
| GCAAAUCCCUCUGAAUGAUTT against Aox3 | inactive: -0.358 |
| GCCCGCAUUCUUAUUCGAUTT against 9630015D15Rik | inactive: 0.786 |
| GCCCAUUCUAAACAAAUAATT against Ptcd1 | inactive: -0.471 |
| GGGACUCUACCUUCAAUGUTT against Fkbp9 | inactive: 0.43 |
| GGCGACGAGUUUGAUGACUTT against Cri1 | inactive: 0.4 |
| CGGCUCAUAGGAAUGAUUUTT against Brf1 | inactive: -2.6 |
| GCGUAGGUUACGUUCAAGGTT against 2410011O22Rik | inactive: 1.06 |
| GCGCAAGGAAUACAUGGUGTT against D11Bwg0434e | inactive: -0.202 |
| GGAAGAAGAGGAUGAGAUUTT against Clcn6 | inactive: -2.32 |
| CGAAUUUACAAAGAACUUGTT against LOC238829 | inactive: 1.59 |
| GGGUACAUUCUGGAAAUUUTT against Ids | inactive: 0.0647 |
| GGUCUUCUUCAAACAACUGTT against Hhip | inactive: -0.445 |
| GGAAGUGGACACAGAAAAATT against BC048937 | inactive: 0.172 |
| GGCGGCUUUAGACAAGUAATT against Mrpl13 | inactive: -2.29 |
| CGUGCUGUGCCUUCUGAGUTT against Gtf2e2 | inactive: -0.416 |
| UAGGAAUUGGCUUCUACCUTT against Tdpoz2 | inactive: 0.437 |
| GCUGAUGAGUGGCUAUCAGTT against Coro6 | inactive: -1.48 |
| GGCCUUAUCGGCAGAUAUUTT against 9330161C17Rik | inactive: -0.752 |
| GGCCGAAUCACAGAAACUCTT against Mrps18a | inactive: 0.82 |
| CCUACAUGGGCAUCAUUAGTT against Tfpi2 | inactive: 0.422 |
| CCACUUUAAGACUGACUGUTT against Tnfrsf25 | inactive: -0.523 |
| GCUAGUAACAGCAAGCUUCTT against 4930441O14Rik | inactive: -0.138 |
| GCAUCAACUGUUAGUAAAGTT against Hrb | inactive: -0.973 |

4 entries drawn at random from the list so far, as already listed:

| Sequence | z-score |
| --- | --- |
| GGCCGAAUCACAGAAACUCTT against Mrps18a | inactive: 0.82 |
| GCGCAAGGAAUACAUGGUGTT against D11Bwg0434e | inactive: -0.202 |
| CGGCUCAUAGGAAUGAUUUTT against Brf1 | inactive: -2.6 |
| GCCCGCAUUCUUAUUCGAUTT against 9630015D15Rik | inactive: 0.786 |
